Assay results reported in patent publication US20040208887A1.
Results are given in words; binding and its absence hold for the method and conditions named. Binding calls can cover weak binding; strength is not graded here.

B1: Fab clone 4:6 (Fab, V domains shown)
VH: VQLLEQSGAEVKKPGASVKVSCKASGYTFTKYYLHWVRQAPGQGLEWMGFINPSGGSTSSAQKFQGRISMTRDTSTTTVYMEVNSVTSEDTAVYYCARVGRLGVGATGAFDLWGQGTMVTVSS
VL: AELTQSPSSLSASVGDRVTITCQASQDINYSLNWYQQKPGKPPKLLIYYASHSDTGVPSRFSGGGSGTRFTLTIYSLQPEDIATYYCQHFDHVPRYTFGPGTKVDLK
B2: Fab clone 6a:5 (Fab, V domains shown)
VH: EVQLLESGPGLVKPSQTLSLTCAISGDNVSRKSAAWNWIRQSPSRGLEWLGRTYHMSKWYSVYATSLKSRININVDTSRNQFALQLRSVTPEDTAVYYCAREGPEWAVGGTYGMDVWGQGTTVTVSS
VL: AELTQSPDTLSLSPGERATLSCRASQSVNNNYLAWYQQKPGQAPRLLIYGASSRATGIPDRFSGSGSETDFTLTISRLEPEDFAVYYCQQYDSSRTFGQGTKVEIK

How the values were obtained:
[1] = target: recombinant soluble HCV E1 protein (hepatitis C virus); assay: ELISA, crude periplasmic Fab
[2] = target: recombinant soluble HCV E1 protein (hepatitis C virus); assay: ELISA for E1 reactivity, second selection series

Binder	binding [1]	binding [2]
B1	binds	binds
B2	binds	
